Source: publication PMC3762332
For at least one entry, the source does not settle the construct or the ends of the probe. For part of these data: Where a protein sequence is shown, tags need not be part of it.

Amino acid sequences for entries named in this document (tags omitted). A change or cut given only in a name is not applied to a line headed by its entry.
UniProt Q8IW36: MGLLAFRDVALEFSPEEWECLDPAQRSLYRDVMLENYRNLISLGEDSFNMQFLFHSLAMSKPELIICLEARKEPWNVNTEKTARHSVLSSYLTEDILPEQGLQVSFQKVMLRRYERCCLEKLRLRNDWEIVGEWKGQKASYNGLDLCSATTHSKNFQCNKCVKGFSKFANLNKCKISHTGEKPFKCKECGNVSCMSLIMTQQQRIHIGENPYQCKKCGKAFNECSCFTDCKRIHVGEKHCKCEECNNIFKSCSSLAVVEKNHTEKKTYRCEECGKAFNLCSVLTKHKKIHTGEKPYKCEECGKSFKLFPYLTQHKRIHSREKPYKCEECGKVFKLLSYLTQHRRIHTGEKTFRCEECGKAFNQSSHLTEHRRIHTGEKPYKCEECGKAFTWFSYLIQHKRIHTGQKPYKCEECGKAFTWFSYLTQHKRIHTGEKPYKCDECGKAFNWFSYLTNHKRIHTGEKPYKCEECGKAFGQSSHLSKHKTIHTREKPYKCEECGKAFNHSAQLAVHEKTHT
UniProt Q8NC26: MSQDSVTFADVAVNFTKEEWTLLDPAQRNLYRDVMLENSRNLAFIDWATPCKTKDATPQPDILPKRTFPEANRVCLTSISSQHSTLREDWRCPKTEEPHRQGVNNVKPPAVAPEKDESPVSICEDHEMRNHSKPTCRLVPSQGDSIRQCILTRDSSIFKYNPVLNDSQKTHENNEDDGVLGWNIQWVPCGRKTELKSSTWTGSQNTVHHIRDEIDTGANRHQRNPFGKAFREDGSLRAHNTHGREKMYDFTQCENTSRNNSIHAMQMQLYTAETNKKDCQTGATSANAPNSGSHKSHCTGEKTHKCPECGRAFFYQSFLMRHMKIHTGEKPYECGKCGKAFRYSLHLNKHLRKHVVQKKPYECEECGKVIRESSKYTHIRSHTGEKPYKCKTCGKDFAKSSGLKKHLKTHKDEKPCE
UniProt P05549: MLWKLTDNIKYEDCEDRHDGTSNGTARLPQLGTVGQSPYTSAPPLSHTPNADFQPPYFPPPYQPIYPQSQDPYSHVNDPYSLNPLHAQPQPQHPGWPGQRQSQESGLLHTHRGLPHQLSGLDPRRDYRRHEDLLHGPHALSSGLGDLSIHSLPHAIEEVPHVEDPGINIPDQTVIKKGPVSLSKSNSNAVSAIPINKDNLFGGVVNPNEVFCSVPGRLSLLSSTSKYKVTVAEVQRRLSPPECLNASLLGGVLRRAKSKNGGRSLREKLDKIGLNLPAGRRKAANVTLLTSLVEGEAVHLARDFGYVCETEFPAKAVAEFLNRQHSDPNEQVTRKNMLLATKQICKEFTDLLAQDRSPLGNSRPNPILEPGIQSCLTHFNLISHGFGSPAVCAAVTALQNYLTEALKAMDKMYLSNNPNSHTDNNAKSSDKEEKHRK
UniProt Q9BWM5: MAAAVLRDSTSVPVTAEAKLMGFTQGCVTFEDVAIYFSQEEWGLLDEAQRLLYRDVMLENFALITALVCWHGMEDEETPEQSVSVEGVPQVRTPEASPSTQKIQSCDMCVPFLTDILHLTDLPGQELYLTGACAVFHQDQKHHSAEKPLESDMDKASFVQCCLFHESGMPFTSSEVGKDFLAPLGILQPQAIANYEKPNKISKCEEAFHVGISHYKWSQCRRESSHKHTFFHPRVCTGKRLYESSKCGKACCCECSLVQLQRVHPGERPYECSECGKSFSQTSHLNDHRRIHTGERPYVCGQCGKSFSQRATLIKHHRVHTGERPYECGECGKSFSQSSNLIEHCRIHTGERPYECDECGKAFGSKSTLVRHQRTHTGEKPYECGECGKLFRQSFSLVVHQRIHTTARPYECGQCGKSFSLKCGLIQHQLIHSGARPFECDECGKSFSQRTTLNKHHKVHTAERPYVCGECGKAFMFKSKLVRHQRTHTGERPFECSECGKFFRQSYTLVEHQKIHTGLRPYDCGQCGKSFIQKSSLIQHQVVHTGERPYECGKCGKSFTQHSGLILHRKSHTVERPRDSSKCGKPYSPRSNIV
UniProt O00716: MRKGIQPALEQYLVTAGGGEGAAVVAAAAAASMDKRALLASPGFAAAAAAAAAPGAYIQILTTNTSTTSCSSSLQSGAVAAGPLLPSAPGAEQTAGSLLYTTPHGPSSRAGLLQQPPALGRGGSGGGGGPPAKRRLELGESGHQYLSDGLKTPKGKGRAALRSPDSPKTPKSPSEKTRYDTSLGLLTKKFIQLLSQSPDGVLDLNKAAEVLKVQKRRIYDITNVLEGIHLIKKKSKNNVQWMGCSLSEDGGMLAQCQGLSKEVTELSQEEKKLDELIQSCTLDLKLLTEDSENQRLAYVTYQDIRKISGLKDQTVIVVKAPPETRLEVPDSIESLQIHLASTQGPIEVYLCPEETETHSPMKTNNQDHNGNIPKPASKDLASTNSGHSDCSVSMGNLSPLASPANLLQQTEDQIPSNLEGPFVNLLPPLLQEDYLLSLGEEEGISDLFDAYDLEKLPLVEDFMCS
UniProt Q06330: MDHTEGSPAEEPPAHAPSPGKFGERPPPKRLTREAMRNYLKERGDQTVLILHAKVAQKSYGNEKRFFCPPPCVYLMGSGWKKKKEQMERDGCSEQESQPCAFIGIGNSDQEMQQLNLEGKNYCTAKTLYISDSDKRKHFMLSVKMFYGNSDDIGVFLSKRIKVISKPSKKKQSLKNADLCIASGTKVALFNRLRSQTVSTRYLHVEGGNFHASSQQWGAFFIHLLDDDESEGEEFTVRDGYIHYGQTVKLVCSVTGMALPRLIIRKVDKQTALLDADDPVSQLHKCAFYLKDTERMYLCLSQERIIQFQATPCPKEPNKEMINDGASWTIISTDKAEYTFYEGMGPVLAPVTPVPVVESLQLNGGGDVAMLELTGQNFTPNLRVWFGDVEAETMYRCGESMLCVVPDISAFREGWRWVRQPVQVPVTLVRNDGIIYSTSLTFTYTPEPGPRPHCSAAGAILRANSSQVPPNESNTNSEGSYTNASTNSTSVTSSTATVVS
UniProt P20719: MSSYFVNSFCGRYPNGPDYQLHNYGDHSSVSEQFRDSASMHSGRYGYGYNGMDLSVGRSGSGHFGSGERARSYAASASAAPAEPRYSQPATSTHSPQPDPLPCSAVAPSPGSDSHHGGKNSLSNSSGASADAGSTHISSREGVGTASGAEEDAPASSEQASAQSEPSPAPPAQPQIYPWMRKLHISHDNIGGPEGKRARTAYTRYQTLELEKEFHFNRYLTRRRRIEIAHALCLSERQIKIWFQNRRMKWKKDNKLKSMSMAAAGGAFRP
UniProt O43186: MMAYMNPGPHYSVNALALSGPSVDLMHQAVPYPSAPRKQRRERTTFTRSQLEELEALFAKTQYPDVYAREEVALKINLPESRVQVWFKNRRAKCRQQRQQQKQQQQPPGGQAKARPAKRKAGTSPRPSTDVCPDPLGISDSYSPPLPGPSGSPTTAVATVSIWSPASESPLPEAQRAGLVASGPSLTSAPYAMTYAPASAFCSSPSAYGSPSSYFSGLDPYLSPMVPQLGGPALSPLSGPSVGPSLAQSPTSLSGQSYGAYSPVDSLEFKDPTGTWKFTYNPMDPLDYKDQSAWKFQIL
UniProt Q9BTC0, whole entry: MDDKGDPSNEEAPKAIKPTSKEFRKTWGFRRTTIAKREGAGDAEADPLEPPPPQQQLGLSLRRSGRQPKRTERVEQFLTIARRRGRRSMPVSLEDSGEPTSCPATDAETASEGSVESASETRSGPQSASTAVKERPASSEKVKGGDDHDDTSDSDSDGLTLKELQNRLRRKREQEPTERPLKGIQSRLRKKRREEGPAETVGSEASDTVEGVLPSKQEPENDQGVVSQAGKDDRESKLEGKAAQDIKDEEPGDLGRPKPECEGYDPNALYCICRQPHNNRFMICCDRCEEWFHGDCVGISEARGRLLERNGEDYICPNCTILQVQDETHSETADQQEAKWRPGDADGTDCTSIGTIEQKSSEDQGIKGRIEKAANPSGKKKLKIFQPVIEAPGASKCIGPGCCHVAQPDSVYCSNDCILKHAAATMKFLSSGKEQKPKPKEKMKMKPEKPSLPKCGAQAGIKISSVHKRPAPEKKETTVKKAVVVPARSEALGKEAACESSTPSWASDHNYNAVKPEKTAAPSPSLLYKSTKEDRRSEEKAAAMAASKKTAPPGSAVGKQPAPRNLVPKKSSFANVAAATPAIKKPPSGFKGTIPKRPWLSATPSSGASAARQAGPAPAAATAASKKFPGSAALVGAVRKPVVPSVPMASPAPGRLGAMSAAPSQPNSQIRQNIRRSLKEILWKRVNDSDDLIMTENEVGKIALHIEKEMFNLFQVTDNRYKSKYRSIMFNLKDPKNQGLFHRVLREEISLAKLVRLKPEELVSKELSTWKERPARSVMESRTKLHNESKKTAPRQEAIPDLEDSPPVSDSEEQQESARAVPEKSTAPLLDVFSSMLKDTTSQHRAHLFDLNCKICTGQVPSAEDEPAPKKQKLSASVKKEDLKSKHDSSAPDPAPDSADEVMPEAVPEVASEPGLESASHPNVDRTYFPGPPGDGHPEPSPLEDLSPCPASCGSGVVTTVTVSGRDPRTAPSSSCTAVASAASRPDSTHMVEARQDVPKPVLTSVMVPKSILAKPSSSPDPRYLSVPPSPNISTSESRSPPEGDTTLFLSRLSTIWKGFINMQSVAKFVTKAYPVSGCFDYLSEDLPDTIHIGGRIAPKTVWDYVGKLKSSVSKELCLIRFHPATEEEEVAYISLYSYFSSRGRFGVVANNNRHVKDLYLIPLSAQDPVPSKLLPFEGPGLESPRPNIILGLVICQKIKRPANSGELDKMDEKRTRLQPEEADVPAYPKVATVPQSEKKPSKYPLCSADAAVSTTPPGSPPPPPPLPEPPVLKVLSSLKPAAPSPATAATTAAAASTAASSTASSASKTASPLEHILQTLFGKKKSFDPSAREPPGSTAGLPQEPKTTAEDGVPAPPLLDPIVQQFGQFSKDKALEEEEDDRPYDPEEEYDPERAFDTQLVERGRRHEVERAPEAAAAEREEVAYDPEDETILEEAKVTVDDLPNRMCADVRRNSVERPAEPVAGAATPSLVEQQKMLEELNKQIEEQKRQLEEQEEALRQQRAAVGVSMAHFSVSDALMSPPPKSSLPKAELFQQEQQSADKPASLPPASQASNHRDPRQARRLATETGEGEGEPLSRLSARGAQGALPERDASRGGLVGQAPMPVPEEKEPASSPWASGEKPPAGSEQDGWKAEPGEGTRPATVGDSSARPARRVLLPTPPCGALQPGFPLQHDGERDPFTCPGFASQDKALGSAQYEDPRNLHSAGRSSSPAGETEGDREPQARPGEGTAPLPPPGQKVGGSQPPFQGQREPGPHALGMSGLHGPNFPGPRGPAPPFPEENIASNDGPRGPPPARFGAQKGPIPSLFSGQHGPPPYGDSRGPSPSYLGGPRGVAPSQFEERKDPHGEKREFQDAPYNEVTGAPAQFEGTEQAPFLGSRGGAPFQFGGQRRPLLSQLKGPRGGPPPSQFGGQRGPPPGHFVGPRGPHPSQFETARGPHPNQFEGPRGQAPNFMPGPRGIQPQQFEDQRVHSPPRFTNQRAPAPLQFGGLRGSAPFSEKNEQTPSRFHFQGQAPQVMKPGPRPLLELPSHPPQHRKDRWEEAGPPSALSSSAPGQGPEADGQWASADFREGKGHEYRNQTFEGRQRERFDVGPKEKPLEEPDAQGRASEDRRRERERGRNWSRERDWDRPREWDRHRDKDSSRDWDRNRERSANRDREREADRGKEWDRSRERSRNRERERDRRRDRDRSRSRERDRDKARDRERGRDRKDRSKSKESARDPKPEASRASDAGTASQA
UniProt Q96BD5: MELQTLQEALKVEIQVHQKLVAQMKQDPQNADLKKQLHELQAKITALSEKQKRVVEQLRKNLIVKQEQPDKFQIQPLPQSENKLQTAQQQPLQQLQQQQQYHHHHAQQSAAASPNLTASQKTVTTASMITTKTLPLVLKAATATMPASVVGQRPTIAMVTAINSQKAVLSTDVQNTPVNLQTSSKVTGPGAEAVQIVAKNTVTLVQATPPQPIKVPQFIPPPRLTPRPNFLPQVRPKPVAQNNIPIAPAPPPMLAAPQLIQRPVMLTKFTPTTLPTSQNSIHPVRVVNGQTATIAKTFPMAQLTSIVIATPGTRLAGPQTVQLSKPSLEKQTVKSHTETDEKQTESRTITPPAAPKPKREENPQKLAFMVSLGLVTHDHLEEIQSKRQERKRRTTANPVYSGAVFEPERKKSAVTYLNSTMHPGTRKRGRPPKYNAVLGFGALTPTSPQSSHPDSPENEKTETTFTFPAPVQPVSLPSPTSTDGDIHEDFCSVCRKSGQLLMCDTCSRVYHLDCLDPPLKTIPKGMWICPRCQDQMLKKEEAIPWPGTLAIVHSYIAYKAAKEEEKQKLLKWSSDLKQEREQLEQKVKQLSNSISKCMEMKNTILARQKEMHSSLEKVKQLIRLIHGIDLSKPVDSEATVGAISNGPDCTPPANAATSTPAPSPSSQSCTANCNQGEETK

Tests used:
Assay in all cases: protein microarray
Settings in all cases: 10-fold cold unmethylated competitor; 5mC at CpG (SssI, both strands); recombinant protein; protein details: GST (N-terminal); label: Cy5
ZNF695 (Homo sapiens) = ZNF695 (Homo sapiens) (UniProt Q8IW36)
ZNF114 (Homo sapiens) = ZNF114 (Homo sapiens) (UniProt Q8NC26)
TFAP2A (Homo sapiens) = TFAP2A (Homo sapiens) (UniProt P05549)
ZKSCAN5 (Homo sapiens) = ZKSCAN5 (Homo sapiens) (UniProt Q9Y2L8)
ZNF416 (Homo sapiens) = ZNF416 (Homo sapiens) (UniProt Q9BWM5)
E2F3 (Homo sapiens) = E2F3 (Homo sapiens) (UniProt O00716)
RBPJ (Homo sapiens) = RBPJ (Homo sapiens) (UniProt Q06330)
GATA4 (Homo sapiens) = GATA4 (Homo sapiens) (UniProt P43694)
MEF2A (Homo sapiens) = MEF2A (Homo sapiens) (UniProt Q02078)
HOXA5 (Homo sapiens) = HOXA5 (Homo sapiens) (UniProt P20719)
TGIF1 (Homo sapiens) = TGIF1 (Homo sapiens) (UniProt Q15583)
ZNF461 (Homo sapiens) = ZNF461 (Homo sapiens) (UniProt Q8TAF7)
CRX (Homo sapiens) = CRX (Homo sapiens) (UniProt O43186)
PPARG (Homo sapiens) = PPARG (Homo sapiens) (UniProt P37231)
DIDO1 (Homo sapiens) = DIDO1 (Homo sapiens) (UniProt Q9BTC0)
SCAPER (Homo sapiens) = biological target: T1, SCAPER (Homo sapiens) (UniProt Q9BY12)
T1 sequence (looked up, limits assumed): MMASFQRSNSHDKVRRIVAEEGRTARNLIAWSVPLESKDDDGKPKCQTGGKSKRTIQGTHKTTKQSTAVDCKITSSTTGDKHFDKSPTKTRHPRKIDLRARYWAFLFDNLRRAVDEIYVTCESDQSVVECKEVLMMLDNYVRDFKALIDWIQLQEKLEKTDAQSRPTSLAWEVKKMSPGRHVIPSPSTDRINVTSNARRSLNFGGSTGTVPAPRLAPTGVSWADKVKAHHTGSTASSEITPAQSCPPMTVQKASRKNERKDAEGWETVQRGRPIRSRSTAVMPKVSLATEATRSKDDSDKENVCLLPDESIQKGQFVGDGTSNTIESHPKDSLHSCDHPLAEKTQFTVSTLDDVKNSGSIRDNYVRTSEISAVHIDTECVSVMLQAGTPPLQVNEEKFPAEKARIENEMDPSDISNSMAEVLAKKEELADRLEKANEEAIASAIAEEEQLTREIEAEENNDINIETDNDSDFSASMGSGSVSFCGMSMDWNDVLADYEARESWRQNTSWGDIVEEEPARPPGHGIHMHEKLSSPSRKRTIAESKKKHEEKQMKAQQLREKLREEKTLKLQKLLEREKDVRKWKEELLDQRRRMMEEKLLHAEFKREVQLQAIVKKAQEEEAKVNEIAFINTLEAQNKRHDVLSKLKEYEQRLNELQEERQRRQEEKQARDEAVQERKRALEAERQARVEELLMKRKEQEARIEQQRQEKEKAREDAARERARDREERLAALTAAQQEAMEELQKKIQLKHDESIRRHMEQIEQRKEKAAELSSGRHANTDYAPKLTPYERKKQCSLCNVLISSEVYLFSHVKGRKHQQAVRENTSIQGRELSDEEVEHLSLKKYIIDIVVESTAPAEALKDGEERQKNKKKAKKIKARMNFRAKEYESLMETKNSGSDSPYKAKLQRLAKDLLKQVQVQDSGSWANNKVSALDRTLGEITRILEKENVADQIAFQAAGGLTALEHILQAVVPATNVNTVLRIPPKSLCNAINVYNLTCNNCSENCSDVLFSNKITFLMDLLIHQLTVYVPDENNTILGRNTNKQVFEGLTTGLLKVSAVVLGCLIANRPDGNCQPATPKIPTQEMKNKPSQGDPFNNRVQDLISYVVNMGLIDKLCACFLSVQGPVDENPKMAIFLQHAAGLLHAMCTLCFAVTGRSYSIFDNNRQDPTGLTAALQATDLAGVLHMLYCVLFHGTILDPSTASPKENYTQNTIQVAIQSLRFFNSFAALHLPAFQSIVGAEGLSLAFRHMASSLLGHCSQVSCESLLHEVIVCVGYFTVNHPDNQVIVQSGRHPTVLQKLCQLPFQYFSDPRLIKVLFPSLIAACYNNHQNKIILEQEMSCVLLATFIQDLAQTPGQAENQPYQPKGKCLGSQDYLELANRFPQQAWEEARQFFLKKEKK

CERS4 (Homo sapiens) = biological target: T2, CERS4 (Homo sapiens) (UniProt Q9HA82)
T2 sequence (looked up, limits assumed): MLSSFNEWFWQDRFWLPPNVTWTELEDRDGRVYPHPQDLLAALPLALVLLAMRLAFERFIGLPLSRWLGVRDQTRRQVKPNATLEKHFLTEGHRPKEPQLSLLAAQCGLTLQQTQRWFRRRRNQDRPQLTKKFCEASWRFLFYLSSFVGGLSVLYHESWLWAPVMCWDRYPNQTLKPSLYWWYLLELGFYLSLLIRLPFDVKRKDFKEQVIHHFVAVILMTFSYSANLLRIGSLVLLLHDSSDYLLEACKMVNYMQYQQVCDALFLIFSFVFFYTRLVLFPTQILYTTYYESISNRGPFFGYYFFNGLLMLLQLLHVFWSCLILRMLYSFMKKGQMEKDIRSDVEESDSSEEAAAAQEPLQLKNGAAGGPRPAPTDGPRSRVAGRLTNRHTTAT

GTF2F1 (Homo sapiens) = GTF2F1 (Homo sapiens) (UniProt P35269)
ZMYM3 (Homo sapiens) = biological target: T3, ZMYM3 (Homo sapiens) (UniProt Q14202)
T3 sequence (looked up, limits assumed): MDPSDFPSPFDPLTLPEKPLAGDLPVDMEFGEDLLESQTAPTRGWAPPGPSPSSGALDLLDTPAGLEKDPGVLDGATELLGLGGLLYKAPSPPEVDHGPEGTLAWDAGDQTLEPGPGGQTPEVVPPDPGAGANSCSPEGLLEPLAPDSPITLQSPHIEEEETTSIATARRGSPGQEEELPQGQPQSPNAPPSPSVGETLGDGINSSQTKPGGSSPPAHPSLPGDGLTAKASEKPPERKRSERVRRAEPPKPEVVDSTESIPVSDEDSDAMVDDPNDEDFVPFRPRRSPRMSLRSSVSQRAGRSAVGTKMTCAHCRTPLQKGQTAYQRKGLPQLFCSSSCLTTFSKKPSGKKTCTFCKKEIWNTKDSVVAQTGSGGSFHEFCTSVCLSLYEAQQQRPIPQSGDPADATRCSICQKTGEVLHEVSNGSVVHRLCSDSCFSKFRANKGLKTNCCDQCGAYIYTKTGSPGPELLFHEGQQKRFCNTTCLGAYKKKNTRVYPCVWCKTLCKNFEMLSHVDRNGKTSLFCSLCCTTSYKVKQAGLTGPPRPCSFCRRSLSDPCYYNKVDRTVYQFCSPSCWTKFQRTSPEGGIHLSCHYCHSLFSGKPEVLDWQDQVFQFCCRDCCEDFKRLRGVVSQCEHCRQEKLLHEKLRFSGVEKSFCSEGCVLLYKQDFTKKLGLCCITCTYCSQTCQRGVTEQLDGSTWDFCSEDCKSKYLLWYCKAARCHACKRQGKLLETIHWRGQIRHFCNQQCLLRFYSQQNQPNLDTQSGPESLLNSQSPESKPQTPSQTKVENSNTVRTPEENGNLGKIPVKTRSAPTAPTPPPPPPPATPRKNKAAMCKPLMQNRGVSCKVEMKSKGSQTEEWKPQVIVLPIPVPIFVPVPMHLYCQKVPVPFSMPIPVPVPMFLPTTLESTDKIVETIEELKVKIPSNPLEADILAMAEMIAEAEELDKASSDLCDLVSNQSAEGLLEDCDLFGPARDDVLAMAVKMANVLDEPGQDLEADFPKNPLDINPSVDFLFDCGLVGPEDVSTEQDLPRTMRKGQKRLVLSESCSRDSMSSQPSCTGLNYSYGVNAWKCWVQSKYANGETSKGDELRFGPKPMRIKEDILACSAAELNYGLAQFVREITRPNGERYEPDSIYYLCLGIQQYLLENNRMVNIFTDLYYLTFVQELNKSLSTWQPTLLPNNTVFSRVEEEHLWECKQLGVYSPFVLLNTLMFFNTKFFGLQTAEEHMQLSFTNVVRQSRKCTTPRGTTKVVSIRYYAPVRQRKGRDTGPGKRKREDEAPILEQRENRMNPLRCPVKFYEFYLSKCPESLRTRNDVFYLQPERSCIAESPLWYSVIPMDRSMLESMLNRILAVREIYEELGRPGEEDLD

PMS1 (Homo sapiens) = biological target: T4, PMS1 (Homo sapiens) (UniProt P54277)
T4 sequence (looked up, limits assumed): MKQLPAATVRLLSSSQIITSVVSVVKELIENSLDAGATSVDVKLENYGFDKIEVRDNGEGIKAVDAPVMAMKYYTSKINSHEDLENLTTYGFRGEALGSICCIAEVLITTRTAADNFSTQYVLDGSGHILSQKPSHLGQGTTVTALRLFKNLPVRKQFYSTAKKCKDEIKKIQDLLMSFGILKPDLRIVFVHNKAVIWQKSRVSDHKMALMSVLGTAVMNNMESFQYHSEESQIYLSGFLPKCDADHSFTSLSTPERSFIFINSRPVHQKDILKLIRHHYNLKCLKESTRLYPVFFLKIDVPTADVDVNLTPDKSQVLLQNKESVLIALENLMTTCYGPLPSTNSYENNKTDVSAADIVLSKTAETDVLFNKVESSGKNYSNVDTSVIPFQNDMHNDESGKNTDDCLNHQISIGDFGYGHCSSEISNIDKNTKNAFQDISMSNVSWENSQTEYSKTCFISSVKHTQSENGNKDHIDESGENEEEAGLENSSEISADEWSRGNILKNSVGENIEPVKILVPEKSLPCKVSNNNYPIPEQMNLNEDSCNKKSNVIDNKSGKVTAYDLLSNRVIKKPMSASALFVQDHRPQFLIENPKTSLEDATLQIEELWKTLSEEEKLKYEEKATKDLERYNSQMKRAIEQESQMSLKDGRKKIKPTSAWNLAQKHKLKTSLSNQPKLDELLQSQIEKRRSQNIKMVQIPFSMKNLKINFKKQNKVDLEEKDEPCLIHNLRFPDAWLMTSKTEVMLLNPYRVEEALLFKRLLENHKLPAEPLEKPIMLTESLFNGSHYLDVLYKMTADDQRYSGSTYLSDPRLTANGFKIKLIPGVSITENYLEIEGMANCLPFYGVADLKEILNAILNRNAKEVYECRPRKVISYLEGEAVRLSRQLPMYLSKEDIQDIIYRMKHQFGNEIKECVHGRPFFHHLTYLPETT

PHF21A (Homo sapiens) = PHF21A (Homo sapiens) (UniProt Q96BD5)

Measured: binding result

CCGAGAACCAAACCGAGAACCCCCTATAGTGAGTGCTATTA (double strand) [M265]
binds: ZNF695 (Homo sapiens) | ZNF114 (Homo sapiens) | TFAP2A (Homo sapiens) | ZKSCAN5 (Homo sapiens) | ZNF416 (Homo sapiens) | E2F3 (Homo sapiens) | RBPJ (Homo sapiens) | GATA4 (Homo sapiens) | MEF2A (Homo sapiens)

CGTAATTAGGAAGGTAAATCCCCCGTAATTAGGAAGGTAAATCCCCTATAGTGAGTGCTATTA (double strand) [M116]
binds: HOXA5 (Homo sapiens) | ZNF114 (Homo sapiens) | TGIF1 (Homo sapiens) | ZNF461 (Homo sapiens) | CRX (Homo sapiens)

CTGCAGCGAGCAACTGAGAATCCAAGACAAACTGCAGCGAGCAACTGAGAATCCAAGACCCCTATAGTGAGTGCTATTA (double strand) [M24]
binds: ZNF695 (Homo sapiens) | ZNF114 (Homo sapiens) | PPARG (Homo sapiens) | TFAP2A (Homo sapiens) | DIDO1 (Homo sapiens) | SCAPER (Homo sapiens) | CERS4 (Homo sapiens) | ZNF416 (Homo sapiens) | E2F3 (Homo sapiens) | GATA4 (Homo sapiens)

TGACGTCAAAATGACGTCACCCTATAGTGAGTGCTATTA (double strand) [M203]
not listed: TFAP2A (Homo sapiens) | ZKSCAN5 (Homo sapiens) | RBPJ (Homo sapiens) | TGIF1 (Homo sapiens) | ZNF461 (Homo sapiens) | CRX (Homo sapiens) | PPARG (Homo sapiens) | DIDO1 (Homo sapiens) | SCAPER (Homo sapiens)
binds: all other assays above
